Measured data: PubChem BioAssay AID504786 (Drosophila RNAi Screening Center, 2011)

Screen: 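Fly genes required for HIF-dependent transcription when hypoxia is mimicked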 (primary screen)
System: Drosophila S2 cells with a stable HIF luciferase reporter
Knock-down reagent: long dsRNA against Drosophila genes, about 0.2 µg dsRNA per well of a 384-well plate
Duration: three days of knock-down, then 20 h of DFO before reading
Treatment: desferrioxamine (DFO) at 100 µM, an iron chelator that mimics hypoxia, for 20 h
Detection: 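Firefly luciferase driven by the mouse ldh-a hypoxia-response element, measured after 20 h of 100 µM DFO; z-scores per plate, higher means more signal lost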
Reading the numbers: z-score: higher = stronger loss of HIF reporter signal
The screen tested about 21,000 reagents; below is an unselected part of those that have a named target and a result. 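Primary screen; positive scores mean lost reporter signal, so the sign may be inverted from the usual convention.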 Names joined by + are all predicted targets of the reagent. Further read-outs or replicates are left out here.

z-score, replicate 1, by target and reagent
D (Dichaete): DRSC11132 -0.2
AnxB11 (Annexin B11): DRSC19331 -0.1
Cc2d2a (Coiled-coil and C2 domain containing 2A): DRSC06750 -0.2; DRSC06779 -0.3
CG14731: DRSC14952 -0.4
RpL13 (Ribosomal protein L13): DRSC03416 4
Abca3 (ATP binding cassette subfamily A member 3): DRSC20546 0.1
CG32645: DRSC19683 0.1; DRSC19889 -0.2
robl37BC: DRSC02472 -0.2
CG13362: DRSC17897 -0.2
pb (proboscipedia): DRSC12409 -0.2; DRSC12629 2.4
CG9517 (retired record): DRSC20192 -0.2; DRSC20193 -0.2
JMJD4 (Jumonji domain containing 4): DRSC03025 -0.3
CG14085: DRSC10089 -0.3
IleRS (Isoleucyl-tRNA synthetase): DRSC11667 -0.2
BaraA1 + BaraA2: DRSC05417 -0.2
mip40 (Myb-interacting protein 40): DRSC06541 -0.3
poe (purity of essence): DRSC03593 0.2
CG12590: DRSC12216 -0.4
CG17207: DRSC15198 -0.3
Syx1A (Syntaxin 1A): DRSC15359 0.9
CG8870: DRSC16452 -0.3
CG15528: DRSC15065 -0.1
Ace (Acetylcholine esterase): DRSC12959 -0.2; DRSC14100 -0.2
CG11034: DRSC02121 -0.2; DRSC02122 -0.4
CG33627: DRSC05343 0
CG8379: DRSC16414 0.3
CG8483: DRSC16430 -0.4
CG43333: DRSC01917 -0.3
Pura (Puratrophin-1-like): DRSC08891 -0.2; DRSC10862 -0.3; DRSC10864 -0.3; DRSC10865 0.1; DRSC10866 -0.2
CG13438: DRSC06398 -0.4
alien + CG17906: DRSC02641 -0.3
l(2)37Bb (lethal (2) 37Bb): DRSC02088 -0.3
CG3558: DRSC00615 -0.4
CG5653: DRSC10534 -0.3
Synd (Syndapin): DRSC15116 0.3
psd (palisade): DRSC03131 -0.3
CG5096: DRSC02813 -0.4
MED21 (Mediator complex subunit 21): DRSC20932 0.2
GILT1 (Gamma-interferon-inducible lysosomal thiol reductase 1): DRSC16565 -0.3
CG8492: DRSC10984 -0.4
Flo2 (Flotillin 2): DRSC19062 0; DRSC20244 -0.3
Vha100-2 (Vacuolar H[+] ATPase 100kD subunit 2): DRSC14152 -0.2
spidey: DRSC17932 -0.1
eIF4E5 (eukaryotic translation initiation factor 4E5): DRSC10975 0.2
CG3277: DRSC00588 -0.2
CG7772: DRSC20056 -0.2
CG13991: DRSC02323 -0.4
dbe (dribble): DRSC00811 -0.1
CG7379: DRSC16237 -0.2
His2B:CG33870 + His2B:CG33868 + His2B:CG33882 + 21 more: DRSC03757 2.7
CG30458: DRSC06660 -0.4
CG15286: DRSC01907 -0.3
Prosalpha6T (Proteasome alpha6 subunit, Testis-specific): DRSC02873 -0.3
Ice1 (Interacts with the C terminus of ELL 1): DRSC04191 5
RpL17 (Ribosomal protein L17): DRSC18293 7
CG31371: DRSC15079 -0.4
Rpn5 (Regulatory particle non-ATPase 5): DRSC12367 0.9
CG18476: DRSC15281 -0.2
cn (cinnabar): DRSC07594 -0.2
CG18586: DRSC10325 -0.4
CG31342: DRSC15349 -0.4; DRSC16246 -0.1
CG34310: DRSC00943 0.4
Inx6 (Innexin 6): DRSC20579 0.1
PpV (Protein phosphatase V): DRSC18700 0.1
tst (twister): DRSC14212 -0.2
CG10164: DRSC14197 -0.5
TTLL15 (Tubulin tyrosine ligase-like 15): DRSC15543 0
Tektin-C (Tektin C): DRSC09741 3.6
Oxp (Oxpecker): DRSC06712 -0.2
Diap2 (Death-associated inhibitor of apoptosis 2): DRSC07444 -0.2
RpS13 (Ribosomal protein S13): DRSC03419 7.8

A few values from above:
For “z-score, replicate 1”, CG34310 [DRSC00943] is entered as 0.4
For “z-score, replicate 1”, CG43333 [DRSC01917] reads -0.3
spidey [DRSC17932], z-score, replicate 1 = -0.1
Value for Pura (Puratrophin-1-like) [DRSC10864] in “z-score, replicate 1”: -0.3
Under “z-score, replicate 1”, His2B:CG33870 + His2B:CG33868 + His2B:CG33882 + 21 more [DRSC03757] has 2.7
For “z-score, replicate 1”, MED21 (Mediator complex subunit 21) [DRSC20932] shows 0.2
